Assay results published in publication doi:10.1101/2024.08.04.605933.
These are yes or no findings as the source states them, for the method shown. Some results given as binding are weak or reduced against the parent protein; the word gives no strength. Tags and fused reporters may be left off the sequences shown.

Molecular target: T1, voltage dependent anion channel 2 (VDAC2) (human (endogenous in HeLa)), P45880
T1 chain: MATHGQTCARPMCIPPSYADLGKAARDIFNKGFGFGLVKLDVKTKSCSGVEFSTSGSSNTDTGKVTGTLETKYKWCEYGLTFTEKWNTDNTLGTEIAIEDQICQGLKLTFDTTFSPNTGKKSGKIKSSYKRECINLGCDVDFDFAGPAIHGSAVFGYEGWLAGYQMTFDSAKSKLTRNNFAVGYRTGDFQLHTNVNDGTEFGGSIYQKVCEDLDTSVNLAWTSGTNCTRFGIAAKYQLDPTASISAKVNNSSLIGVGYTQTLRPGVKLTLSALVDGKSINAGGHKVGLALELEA
Experiment: native gel or EMSA
Settings: remark: other sources report otherwise

B1: BCL-2 antagonist/killer (BAK), Q16611 1-211 (protein)
chain: MASGQGPGPPRQECGEPALPSASEEQVAQDTEEVFRSYVFYRHQQEQEAEGVAAPADPEMVTLPLQPSSTMGQVGRQLAIIGDDINRRYDSEFQTMLQHLQPTAENAYEYFTKIATSLFESGINWGRVVALLGFGYRLALHVYQHGLTGFLGQVTRFVVDFMLHHCIARWIAQRGGWVAALNLGNGPILNVLVVLGVVLLGQFVVRRFFKS
binding: binds
